The other results are listed elsewhere or left out. The data scatter; read single values as rough.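 Tm was set to 64 °C where no melting was found, and many curves are irregular.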

Sequences of proteins named here, by UniProt entry; tags and fusion partners are left off. A change or cut given only in a name is not applied to a line headed by its entry.
UniProt Q9BVJ7: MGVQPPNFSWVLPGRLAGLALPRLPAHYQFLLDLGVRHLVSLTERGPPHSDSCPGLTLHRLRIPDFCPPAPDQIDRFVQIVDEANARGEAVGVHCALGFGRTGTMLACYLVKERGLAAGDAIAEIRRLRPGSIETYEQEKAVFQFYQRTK
UniProt Q99567: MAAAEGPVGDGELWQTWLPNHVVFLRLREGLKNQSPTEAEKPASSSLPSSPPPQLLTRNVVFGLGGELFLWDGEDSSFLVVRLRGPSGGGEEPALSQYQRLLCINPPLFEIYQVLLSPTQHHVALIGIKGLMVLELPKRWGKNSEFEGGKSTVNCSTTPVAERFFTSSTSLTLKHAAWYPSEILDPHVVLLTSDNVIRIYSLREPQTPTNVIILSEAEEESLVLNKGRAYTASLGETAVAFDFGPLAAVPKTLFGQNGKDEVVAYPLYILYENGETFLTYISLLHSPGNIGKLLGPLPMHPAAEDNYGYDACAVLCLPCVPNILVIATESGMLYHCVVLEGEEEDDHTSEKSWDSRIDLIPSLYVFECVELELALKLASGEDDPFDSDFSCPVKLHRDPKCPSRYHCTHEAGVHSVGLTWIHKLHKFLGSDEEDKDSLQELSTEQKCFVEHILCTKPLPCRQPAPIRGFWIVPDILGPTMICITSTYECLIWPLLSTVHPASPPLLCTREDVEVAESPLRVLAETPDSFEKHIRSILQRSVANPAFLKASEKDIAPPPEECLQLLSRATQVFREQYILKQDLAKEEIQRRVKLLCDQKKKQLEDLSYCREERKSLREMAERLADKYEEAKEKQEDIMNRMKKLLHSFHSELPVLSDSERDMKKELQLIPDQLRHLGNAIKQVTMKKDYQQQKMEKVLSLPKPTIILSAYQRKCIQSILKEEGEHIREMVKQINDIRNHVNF
UniProt Q9BY43: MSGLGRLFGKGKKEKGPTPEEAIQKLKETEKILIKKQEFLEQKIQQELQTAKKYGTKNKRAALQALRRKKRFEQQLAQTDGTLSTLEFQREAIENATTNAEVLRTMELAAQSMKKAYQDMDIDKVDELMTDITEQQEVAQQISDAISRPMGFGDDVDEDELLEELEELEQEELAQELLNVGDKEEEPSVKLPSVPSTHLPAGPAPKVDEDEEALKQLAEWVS
UniProt Q9BPX3, whole entry, looked up: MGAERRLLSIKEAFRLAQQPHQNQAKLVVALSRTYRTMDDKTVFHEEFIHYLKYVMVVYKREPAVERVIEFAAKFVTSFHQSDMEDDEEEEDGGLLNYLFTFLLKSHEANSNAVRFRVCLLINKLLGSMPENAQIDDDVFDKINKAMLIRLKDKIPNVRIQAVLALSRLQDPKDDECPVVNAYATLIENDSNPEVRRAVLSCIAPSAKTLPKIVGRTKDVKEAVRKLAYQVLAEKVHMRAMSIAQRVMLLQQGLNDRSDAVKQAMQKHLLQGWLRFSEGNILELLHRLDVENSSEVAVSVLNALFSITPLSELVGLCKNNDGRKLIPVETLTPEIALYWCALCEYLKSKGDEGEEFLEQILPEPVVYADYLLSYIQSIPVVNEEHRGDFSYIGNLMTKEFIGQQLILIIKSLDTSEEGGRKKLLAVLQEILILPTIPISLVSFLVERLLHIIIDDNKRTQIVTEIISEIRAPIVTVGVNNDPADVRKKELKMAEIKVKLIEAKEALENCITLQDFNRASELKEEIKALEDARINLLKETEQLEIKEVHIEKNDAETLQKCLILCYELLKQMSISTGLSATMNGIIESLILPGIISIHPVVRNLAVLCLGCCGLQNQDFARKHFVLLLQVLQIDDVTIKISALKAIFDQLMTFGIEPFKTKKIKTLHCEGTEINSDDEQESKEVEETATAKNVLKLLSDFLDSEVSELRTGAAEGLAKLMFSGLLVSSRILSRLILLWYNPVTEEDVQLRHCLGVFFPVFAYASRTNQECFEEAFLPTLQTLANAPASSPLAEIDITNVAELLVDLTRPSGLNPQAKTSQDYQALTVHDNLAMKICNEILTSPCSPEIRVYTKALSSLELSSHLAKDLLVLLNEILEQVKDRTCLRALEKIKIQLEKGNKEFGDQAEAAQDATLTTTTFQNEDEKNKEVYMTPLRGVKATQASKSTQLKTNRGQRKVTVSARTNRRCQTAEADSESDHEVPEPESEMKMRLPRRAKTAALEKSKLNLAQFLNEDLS
UniProt Q9BXV9: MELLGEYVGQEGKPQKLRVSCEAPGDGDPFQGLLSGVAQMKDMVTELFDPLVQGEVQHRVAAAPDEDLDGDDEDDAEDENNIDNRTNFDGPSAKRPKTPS
UniProt Q9BVL2: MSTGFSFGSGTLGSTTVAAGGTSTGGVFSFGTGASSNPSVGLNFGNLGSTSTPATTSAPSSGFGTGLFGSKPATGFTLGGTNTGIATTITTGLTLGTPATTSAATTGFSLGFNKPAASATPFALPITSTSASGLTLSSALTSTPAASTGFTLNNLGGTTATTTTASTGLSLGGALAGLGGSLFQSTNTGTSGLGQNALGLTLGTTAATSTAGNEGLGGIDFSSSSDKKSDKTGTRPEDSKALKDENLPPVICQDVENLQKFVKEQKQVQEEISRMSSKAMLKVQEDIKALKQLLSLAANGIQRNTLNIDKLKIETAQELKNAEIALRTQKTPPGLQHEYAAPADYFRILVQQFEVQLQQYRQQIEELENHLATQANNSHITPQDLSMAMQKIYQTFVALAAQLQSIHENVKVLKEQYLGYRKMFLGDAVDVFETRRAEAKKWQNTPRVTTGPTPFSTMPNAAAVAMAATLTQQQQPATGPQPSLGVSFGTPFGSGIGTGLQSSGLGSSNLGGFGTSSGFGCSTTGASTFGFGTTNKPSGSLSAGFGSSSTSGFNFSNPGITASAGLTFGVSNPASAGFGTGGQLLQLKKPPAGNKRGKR
UniProt Q9BRT3: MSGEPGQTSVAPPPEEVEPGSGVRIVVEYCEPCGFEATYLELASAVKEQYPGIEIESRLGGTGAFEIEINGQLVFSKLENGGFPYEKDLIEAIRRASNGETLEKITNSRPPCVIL
UniProt Q9BV29: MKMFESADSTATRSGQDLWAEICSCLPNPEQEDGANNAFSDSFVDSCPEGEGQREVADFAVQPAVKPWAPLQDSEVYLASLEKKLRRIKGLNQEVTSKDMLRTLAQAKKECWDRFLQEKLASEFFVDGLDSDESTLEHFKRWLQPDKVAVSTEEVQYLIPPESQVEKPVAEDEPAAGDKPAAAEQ
UniProt Q9BRJ7: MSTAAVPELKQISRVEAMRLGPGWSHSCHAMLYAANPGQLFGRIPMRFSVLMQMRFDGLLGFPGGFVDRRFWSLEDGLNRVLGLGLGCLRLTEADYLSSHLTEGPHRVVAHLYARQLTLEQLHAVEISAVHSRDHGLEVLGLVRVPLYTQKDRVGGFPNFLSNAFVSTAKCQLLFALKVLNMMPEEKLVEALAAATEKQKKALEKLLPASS
UniProt Q9BY50: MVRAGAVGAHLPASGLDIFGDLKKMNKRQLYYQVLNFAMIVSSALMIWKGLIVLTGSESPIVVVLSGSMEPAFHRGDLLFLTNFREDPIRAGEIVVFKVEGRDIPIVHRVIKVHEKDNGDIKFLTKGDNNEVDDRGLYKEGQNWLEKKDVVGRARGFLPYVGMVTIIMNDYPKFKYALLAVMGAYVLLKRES
UniProt Q99623, whole entry: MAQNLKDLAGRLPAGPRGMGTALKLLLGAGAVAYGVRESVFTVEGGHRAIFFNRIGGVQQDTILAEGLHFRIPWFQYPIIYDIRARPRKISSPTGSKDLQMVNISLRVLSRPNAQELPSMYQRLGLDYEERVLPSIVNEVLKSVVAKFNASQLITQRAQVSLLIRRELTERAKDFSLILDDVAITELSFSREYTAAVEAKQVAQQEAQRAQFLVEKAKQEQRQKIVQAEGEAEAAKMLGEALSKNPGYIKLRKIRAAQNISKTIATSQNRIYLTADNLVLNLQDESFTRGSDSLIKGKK
UniProt Q9BST9: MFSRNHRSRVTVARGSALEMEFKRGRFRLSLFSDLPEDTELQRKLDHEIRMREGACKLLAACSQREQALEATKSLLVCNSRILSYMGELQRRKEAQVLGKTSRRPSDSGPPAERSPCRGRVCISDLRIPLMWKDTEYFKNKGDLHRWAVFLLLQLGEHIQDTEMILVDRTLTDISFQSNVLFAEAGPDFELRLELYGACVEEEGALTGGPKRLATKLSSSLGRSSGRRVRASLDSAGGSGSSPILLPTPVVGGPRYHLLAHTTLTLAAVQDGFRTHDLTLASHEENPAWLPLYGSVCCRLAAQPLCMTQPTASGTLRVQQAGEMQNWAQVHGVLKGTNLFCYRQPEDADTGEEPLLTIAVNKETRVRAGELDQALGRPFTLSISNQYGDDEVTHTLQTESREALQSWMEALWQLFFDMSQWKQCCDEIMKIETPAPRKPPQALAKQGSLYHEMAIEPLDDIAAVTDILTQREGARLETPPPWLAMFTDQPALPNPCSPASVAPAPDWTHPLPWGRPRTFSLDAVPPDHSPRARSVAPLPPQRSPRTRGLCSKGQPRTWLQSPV
UniProt Q9BSJ6: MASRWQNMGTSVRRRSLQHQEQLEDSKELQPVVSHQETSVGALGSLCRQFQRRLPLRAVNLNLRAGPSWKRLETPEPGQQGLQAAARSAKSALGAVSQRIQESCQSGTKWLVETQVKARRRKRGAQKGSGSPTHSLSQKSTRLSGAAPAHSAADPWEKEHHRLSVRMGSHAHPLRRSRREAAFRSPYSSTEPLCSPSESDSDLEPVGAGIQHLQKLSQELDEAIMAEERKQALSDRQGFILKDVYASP
UniProt Q9BS18, whole entry: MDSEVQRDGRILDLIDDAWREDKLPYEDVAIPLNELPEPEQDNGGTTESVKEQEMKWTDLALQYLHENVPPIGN
UniProt Q99797: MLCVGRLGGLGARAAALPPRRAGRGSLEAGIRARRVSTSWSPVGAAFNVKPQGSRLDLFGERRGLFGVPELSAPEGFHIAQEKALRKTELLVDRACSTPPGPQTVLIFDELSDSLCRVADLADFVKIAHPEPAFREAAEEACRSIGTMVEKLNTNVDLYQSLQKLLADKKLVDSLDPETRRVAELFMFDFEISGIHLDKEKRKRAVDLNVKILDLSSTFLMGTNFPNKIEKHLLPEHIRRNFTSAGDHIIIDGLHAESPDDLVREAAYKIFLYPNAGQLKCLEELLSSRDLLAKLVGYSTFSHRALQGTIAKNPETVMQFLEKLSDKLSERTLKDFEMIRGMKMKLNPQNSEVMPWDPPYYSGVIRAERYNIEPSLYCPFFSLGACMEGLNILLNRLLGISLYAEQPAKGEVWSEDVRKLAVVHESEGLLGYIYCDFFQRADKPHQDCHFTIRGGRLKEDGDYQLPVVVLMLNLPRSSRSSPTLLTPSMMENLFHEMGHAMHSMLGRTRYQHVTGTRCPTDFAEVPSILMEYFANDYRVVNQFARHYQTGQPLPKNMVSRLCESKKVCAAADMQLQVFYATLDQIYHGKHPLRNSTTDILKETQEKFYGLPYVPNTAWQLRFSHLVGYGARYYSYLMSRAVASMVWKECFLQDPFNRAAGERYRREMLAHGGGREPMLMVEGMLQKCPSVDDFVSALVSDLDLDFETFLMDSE
UniProt Q9BXI6: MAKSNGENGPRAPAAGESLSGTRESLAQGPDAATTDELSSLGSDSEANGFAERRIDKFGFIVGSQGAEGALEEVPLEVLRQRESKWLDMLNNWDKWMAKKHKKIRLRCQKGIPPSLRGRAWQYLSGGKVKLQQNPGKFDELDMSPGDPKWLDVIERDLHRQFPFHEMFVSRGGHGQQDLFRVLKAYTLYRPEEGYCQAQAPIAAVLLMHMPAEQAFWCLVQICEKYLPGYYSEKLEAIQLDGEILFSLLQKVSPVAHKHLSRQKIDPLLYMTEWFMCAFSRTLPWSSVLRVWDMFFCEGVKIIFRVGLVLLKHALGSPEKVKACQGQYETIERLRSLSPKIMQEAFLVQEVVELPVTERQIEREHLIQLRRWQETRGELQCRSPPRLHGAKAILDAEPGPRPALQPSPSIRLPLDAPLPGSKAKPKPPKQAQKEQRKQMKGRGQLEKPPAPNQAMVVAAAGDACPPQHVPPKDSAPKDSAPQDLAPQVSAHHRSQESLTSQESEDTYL
UniProt Q9BY42: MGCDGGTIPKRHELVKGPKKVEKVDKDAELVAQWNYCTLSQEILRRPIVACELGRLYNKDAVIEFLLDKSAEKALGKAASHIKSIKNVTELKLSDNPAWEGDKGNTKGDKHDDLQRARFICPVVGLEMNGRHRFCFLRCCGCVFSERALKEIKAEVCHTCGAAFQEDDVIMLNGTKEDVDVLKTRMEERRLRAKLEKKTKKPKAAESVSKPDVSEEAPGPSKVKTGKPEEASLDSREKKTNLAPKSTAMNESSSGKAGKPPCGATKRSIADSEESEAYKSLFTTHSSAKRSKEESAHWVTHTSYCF
UniProt Q9BQP7: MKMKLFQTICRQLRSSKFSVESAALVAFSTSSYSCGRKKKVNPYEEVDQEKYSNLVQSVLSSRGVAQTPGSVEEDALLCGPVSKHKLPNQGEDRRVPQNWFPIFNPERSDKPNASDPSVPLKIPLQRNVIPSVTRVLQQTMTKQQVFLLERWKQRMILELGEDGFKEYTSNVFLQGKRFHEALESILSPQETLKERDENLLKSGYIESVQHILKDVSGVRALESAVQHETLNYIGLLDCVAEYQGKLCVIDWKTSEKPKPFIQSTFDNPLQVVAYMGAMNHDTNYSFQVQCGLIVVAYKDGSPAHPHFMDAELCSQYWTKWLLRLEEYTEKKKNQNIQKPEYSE

Melting temperature shift data for 37 targets are collected here from the supplement of paper PMC12595434, “Development of retinoid nuclear receptor pathway antagonists through targeting aldehyde dehydrogenase 1A3” (iScience, 2025).

Compound in the first test: CCc1cnccc1C(=O)Nc1cc2c(cc1F)NC(=O)CC2
In words: melting temperature shift (DMSO Tm minus MBE1-treated Tm) in cellular thermal proteome profiling; higher = less thermal stabilization by MBE1 (negative = stabilized by MBE1). The conditions noted are these: A375; MBE1 concentration: 100 nM.
Regarding DUSP23 (UniProt Q9BVJ7), the melting temperature shift is -0.107 °C.

Take UniProt Q9BSK4: the melting temperature shift turned out to be 0.884 °C.

Regarding HIRIP3 (UniProt Q9BW71), the melting temperature shift was -0.483 °C.

On to NUP88 (UniProt Q99567), for which the melting temperature shift was -0.226 °C.

The same test, now with this note: A375; MBE1 concentration: 1 uM.
With TRMT61B (UniProt Q9BVS5), the melting temperature shift was -1.88 °C.

As for UniProt Q9BY43, the melting temperature shift is -3.72 °C.

In the case of RAB11FIP5 (UniProt Q9BXF6), the melting temperature shift was -0.684 °C.

For NCAPG (UniProt Q9BPX3), the melting temperature shift is -0.513 °C.

Take UniProt Q9BXV9: the melting temperature shift is 0.421 °C.

Take NUP58 (UniProt Q9BVL2): the melting temperature shift stood at 0.116 °C.

Consider MIEN1 (UniProt Q9BRT3), for which the melting temperature shift is -0.611 °C.

For the target UniProt Q9BV29, the melting temperature shift was -1.25 °C.

On to UniProt Q9BRJ7, for which the melting temperature shift is 0.763 °C.

For SEC11C (UniProt Q9BY50), the melting temperature shift amounted to 1.31 °C.

As for PHB2 (UniProt Q99623), the melting temperature shift is 0.0236 °C.

In the case of UniProt Q9BWQ6, the melting temperature shift is 2.68 °C.

For CORO1B (UniProt Q9BR76), the melting temperature shift came out at 0.446 °C.

For RTKN (UniProt Q9BST9), the melting temperature shift is -0.823 °C.

PTDSS2 (UniProt Q9BVG9): the melting temperature shift turned out to be 1.37 °C.

GINS4 (UniProt Q9BRT9): the melting temperature shift was found to be 0.244 °C.

Turning to DIDO1 (UniProt Q9BTC0), the melting temperature shift is -0.499 °C.

Turning to UniProt Q9BSJ6, the melting temperature shift was determined as 1.34 °C.

Consider UniProt Q9BS18, for which the melting temperature shift was -2.27 °C.

Take UniProt Q9BVG4: the melting temperature shift is -0.604 °C.

In the case of UniProt Q9BVA1, the melting temperature shift was 0.134 °C.

For the target C19ORF52 (UniProt Q9BSF4), the melting temperature shift turned out to be 0.416 °C.

With PLIN2 (UniProt Q99541), the melting temperature shift was -0.232 °C.

As to HNRNPAB (UniProt Q99729), the melting temperature shift was 0.111 °C.

MIPEP (UniProt Q99797): the melting temperature shift came out at 0.055 °C.

Turning to TBC1D10A (UniProt Q9BXI6), the melting temperature shift is 0.971 °C.

Consider SLC29A1 (UniProt Q99808), for which the melting temperature shift is -7.15 °C.

Take UniProt Q9BSK2: the melting temperature shift came out at 0.258 °C.

AIF1L (UniProt Q9BQI0): the melting temperature shift was -1.25 °C.

UniProt Q9BY89: the melting temperature shift is 0.362 °C.

As for RTFDC1 (UniProt Q9BY42), the melting temperature shift was -0.452 °C.

Take MGME1 (UniProt Q9BQP7): the melting temperature shift was found to be 0.0872 °C.

Take UniProt Q9BVS4: the melting temperature shift worked out at 0.47 °C.

For DUSP23 (UniProt Q9BVJ7), the melting temperature shift is 0.772 °C.

UniProt Q9BSK4: the melting temperature shift is -0.202 °C.

As to HIRIP3 (UniProt Q9BW71), the melting temperature shift came out at 0.782 °C.

Regarding NUP88 (UniProt Q99567), the melting temperature shift was -0.226 °C.
